Publication PMC9253516

B1: Borealin (endogenous) (protein, UniProt Q53HL2 1-280)
chain: MAPRKGSSRVAKTNSLRRRKLASFLKDFDREVEIRIKQIESDRQNLLKEVDNLYNIEILRLPKALREMNWLDYFALGGNKQALEEAATADLDITEINKLTAEAIQTPLKSAKTRKVIQVDEMIVEEEEEEENERKNLQTARVKRCPPSKKRTQSIQGKGKGKRSSRANTVTPAVGRLEVSMVKPTPGLTPRFDSRVFKTPGLRTPAAGERIYNISGNGSPLADSKEIFLTVPVGGGESLRLLASDLQRHSIAQLDPEALGNIKKLSNRLAQICSSIRTHK
B2: Borealin_(10–280) (domain or fragment, UniProt Q53HL2 10-280)
chain: VAKTNSLRRRKLASFLKDFDREVEIRIKQIESDRQNLLKEVDNLYNIEILRLPKALREMNWLDYFALGGNKQALEEAATADLDITEINKLTAEAIQTPLKSAKTRKVIQVDEMIVEEEEEEENERKNLQTARVKRCPPSKKRTQSIQGKGKGKRSSRANTVTPAVGRLEVSMVKPTPGLTPRFDSRVFKTPGLRTPAAGERIYNISGNGSPLADSKEIFLTVPVGGGESLRLLASDLQRHSIAQLDPEALGNIKKLSNRLAQICSSIRTHK

Columns and labels:
[1] = molecular target: Sgo1_(130–280 4A)-LacI-GFP (human); experiment: LacO-LacI tethering assay (immunofluorescence); Sgo1-LacI-GFP fusions tethered to a LacO array in U-2 OS-LacO Haspin CM cells (S-trityl-L-cysteine overnight); recruitment of endogenous Aurora B and Borealin or of Survivin-mCherry to the LacO foci, intensity over GFP
[2] = molecular target: Sgo1_(130–280)-LacI-GFP (human); experiment: as above
[3] = molecular target: Sgo1_(159–240 4A)-LacI-GFP (human); experiment: as above
[4] = molecular target: Sgo1_(159–240)-LacI-GFP (human); experiment: as above
[5] = molecular target: Sgo1_(1–130)-LacI-GFP (human); experiment: as above
[6] = molecular target: Sgo1_(1–527)-LacI-GFP (human); experiment: as above
[7] = molecular target: Sgo1_(274–415)-LacI-GFP (human); experiment: as above
[8] = molecular target: Sgo1_(415–527)-LacI-GFP (human); experiment: as above
[9] = molecular target: Sgo1_(1–415) (human); experiment: cross-linking; EDC (zero-length) with N-hydroxysulfosuccinimide on the gel-filtrated CPC-Sgo1 1-415 complex, 25 mM Hepes pH 6.8, 150 mM NaCl, 1 h 30 min at room temperature; mass spectrometry (CLMS), 1% link-level FDR; both purified

| binding [9] | Binder | binding [1] | binding [2] | binding [3] | binding [4] | binding [5] | binding [6] | binding [7] | binding [8] |
| --- | --- | --- | --- | --- | --- | --- | --- | --- | --- |
|  | B1 | no binding | binds | no binding | binds | binds | binds | no binding | no binding |
| binds | B2 |  |  |  |  |  |  |  |  |

These are yes or no findings as the source states them, for the method shown. For part of these data: Binding can be weak; no strength is given.
